Binding data for two molecules are collected here from publication PMC11603131.

Results are given in words; binding and its absence hold for the method and conditions named. In cells and extracts the contact can be indirect. A result given as binding can be weak or reduced; the word gives no strength. Tags and fused reporters may be left off the sequences shown.

In experiment [1] the target is T1, FLAG-tagged PfRpn13 (codon-optimised for human cells) (Plasmodium falciparum) (UniProt Q8ILV5).
T1 sequence: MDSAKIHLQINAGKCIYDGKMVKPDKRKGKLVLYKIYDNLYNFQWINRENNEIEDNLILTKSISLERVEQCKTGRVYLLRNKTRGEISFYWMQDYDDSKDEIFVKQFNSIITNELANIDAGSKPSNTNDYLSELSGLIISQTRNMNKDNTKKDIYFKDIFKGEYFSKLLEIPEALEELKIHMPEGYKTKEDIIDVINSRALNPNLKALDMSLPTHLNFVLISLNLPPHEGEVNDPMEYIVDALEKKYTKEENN
As to the kind of experiment: co-IP; HEK293 cells co-expressing HA-tagged PfUCH37 constructs and FLAG-tagged PfRpn13; anti-FLAG or anti-HA magnetic beads; immunoblot. (In western blotting, separated proteins are transferred to a membrane and probed.)

For experiment [2], the target named is HA-tagged PfUCH37dN (poly-asparagine-rich region deleted) (Plasmodium falciparum). Described as above.

As to “HA-tagged PfUCH37dN (poly-asparagine-rich region deleted) (Plasmodium falciparum) (enzyme)”, in experiment [1], the binding entry was “binds”.

B1: FLAG-tagged PfRpn13 (codon-optimised for human cells) (protein, UniProt Q8ILV5 1-253)
chain: MDSAKIHLQINAGKCIYDGKMVKPDKRKGKLVLYKIYDNLYNFQWINRENNEIEDNLILTKSISLERVEQCKTGRVYLLRNKTRGEISFYWMQDYDDSKDEIFVKQFNSIITNELANIDAGSKPSNTNDYLSELSGLIISQTRNMNKDNTKKDIYFKDIFKGEYFSKLLEIPEALEELKIHMPEGYKTKEDIIDVINSRALNPNLKALDMSLPTHLNFVLISLNLPPHEGEVNDPMEYIVDALEKKYTKEENN
Consider B1, for which the binding entry in experiment [2] is reported as “binds”.
